Values quoted from earlier work, collected in patent publication US4562196A, “2,4-Diaminopyridine as a pharmacologic agent” (Nelson Research & Development, priority 1984, dated 1985).
At least one read-out could not be matched to a standard name with certainty.

Settings: Uges, thesis (1982); cited from earlier work

Compound: Nc1ccncc1 [4-Aminopyridine, 4-aminopyridine]
- highest safe dosage for muscle-relaxant reversal: about 0.3 mg./kg.
